Assay results: paper PMC7862700
Only a part is listed here, and it is no random draw. At the low end of the ranking the order means little.

Target: SPI1 (UniProt P17947)
Test: DAPPL (digital affinity profiling via proximity ligation, sequencing)
Conditions: 10 mM Tris-HCl pH 7.5, 50 mM NaCl, 1 mM DTT, 4% glycerol, room temperature, 30 min; GST-TFs on glutathione beads, 16-mer random dsDNA library, 0.1% …; high values mean tight binding; double strand, one strand shown; scale: fold enrichment (6-mer frequency, TF over GST control)

Row | Sequence | binding signal
1 | GTCCGT | 0.485
2 | GGCAGA | 0.625
3 | CTAGTC | 0.777
4 | AGCCGT | 0.423
5 | GGTAAG | 0.689
6 | GCATAA | 0.788
7 | GACTCA | 0.933
8 | GGCGGA | 0.367
9 | GCGAGG | 0.628
10 | GTCAGG | 0.528
11 | GGGCGT | 0.506
12 | CAGTAA | 0.738
13 | AGGACA | 0.805
14 | GTGAAC | 0.852
15 | AGACGC | 0.72
16 | CTCGGA | 0.825
17 | GAGCAT | 0.687
18 | AGGTGG | 0.638
19 | GAGGTT | 0.743
20 | GGGCAC | 0.851

Row | Sequence | binding signal
21 | GGGACT | 0.622
22 | TGGGTC | 0.655
23 | TAGAGC | 0.753
24 | TAGACC | 0.82
25 | GGGCGA | 0.8
26 | CGAGTC | 0.504
27 | AGGGTC | 0.867
28 | CATGAG | 0.615
29 | ACGTAG | 0.757
30 | GAGTAT | 0.626
31 | CACCGT | 0.629
32 | ATCGGT | 0.644
33 | GCGCAA | 0.81
34 | CGCGGT | 0.859
35 | AGTAAG | 0.814
36 | TCAGCG | 0.799
37 | AAGACC | 0.844
38 | CGGGTA | 0.737
39 | GCATGG | 0.832
40 | CCGTGT | 0.465
